Measurements from publication PMC8836349, “Characterization of adenine phosphoribosyltransferase (APRT) activity in Trypanosoma brucei brucei: Only one of the two isoforms is kinetically active” (PLoS Neglected Tropical Diseases, 2022).
These are yes or no findings as the source states them, for the method shown. Where a sequence is shown, tags or fusion partners need not be part of it.

What was measured:
[1] = target: APRT2-Ntag (Trypanosoma brucei brucei putative adenine phosphoribosyltransferase 2, Tb927.7.1790, expressed from pPICZ-Ntag) (Trypanosoma brucei brucei) (UniProt Q57V31); assay: condition: only after dilution (series 17.8-140 ug mL^-1; concentration of loss not told); cross-linking; as a1 (DMS 8.7 mM, 0.2 M triethanolamine pH 8.5, RT), the diluted samples of the series 17.8-140 ug mL^-1; at which concentration the dimer is lost is not told; both purified
[2] = target: APRT2-Ctag (Trypanosoma brucei brucei putative adenine phosphoribosyltransferase 2, Tb927.7.1790, expressed from pPICZ-Ctag) (Trypanosoma brucei brucei) (UniProt Q57V31); assay: as above

Row | binding [1] | binding [2] | Binder
1 | no binding | – | APRT2-Ntag (Trypanosoma brucei brucei putative adenine phosphoribosyltransferase 2, Tb927.7.1790, expressed from pPICZ-Ntag) (natural protein, UniProt Q57V31 1-230, looked up, APRT2 of Trypanosoma brucei brucei, Tb927.7.1790, UniProt Q57V31; the ORF, codon optimised for P. pastoris, cloned into pPICZ-Ntag; Tags removed with TEV protease; measured native-MS mass 25,860 Da (theoretical 25,853 Da); also called TbbAPRT2; source: Pichia pastoris strain smPP, purified (Ni-NTA, TEV cleavage, second Ni-NTA); not shown: His6, N-terminal, cleaved; mCherry, N-terminal, cleaved) MSQYDAILTERHPHHFTLADTHPLAKELHANIFGESDLTHANCAHVYDISSLTEKPALFRKVIEFLKCRYETMGDTGPTHIIGVESRGYIIGAPLAVALGIPFVTARVTKRFPSSFVPEGDDLKYLPMSRSIRNDSIPPRARVLIVDDFIGTGSTMLAALRLADIVAAQVVEVLTVCDVASLGGIKIIRESDDEMFKETPIFTLIHFKLSPREAEEQLEFVNSYITRSRL
2 | – | no binding | APRT2-Ctag (Trypanosoma brucei brucei putative adenine phosphoribosyltransferase 2, Tb927.7.1790, expressed from pPICZ-Ctag) (natural protein, UniProt Q57V31 1-230, looked up, APRT2 of Trypanosoma brucei brucei, Tb927.7.1790, UniProt Q57V31; the ORF, codon optimised for P. pastoris, cloned into pPICZ-Ctag; Tags removed with TEV protease; measured native-MS mass 26,637 Da (theoretical 26,647 Da), so residues of the TEV site are likely left at the C-terminus; also called TbbAPRT2; source: Pichia pastoris strain smPP, purified (Ni-NTA, TEV cleavage, second Ni-NTA); not …) MSQYDAILTERHPHHFTLADTHPLAKELHANIFGESDLTHANCAHVYDISSLTEKPALFRKVIEFLKCRYETMGDTGPTHIIGVESRGYIIGAPLAVALGIPFVTARVTKRFPSSFVPEGDDLKYLPMSRSIRNDSIPPRARVLIVDDFIGTGSTMLAALRLADIVAAQVVEVLTVCDVASLGGIKIIRESDDEMFKETPIFTLIHFKLSPREAEEQLEFVNSYITRSRL
